Values from PubChem BioAssay AID1259405 (NCATS, 2018).

Test: 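Knock-downs that lift recombinant protein yield in hamster ovary cells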 (primary screen)
Cells: Chinese hamster CHO-K1 ovary cells with stable secreted eGFP expression
Reagents: single siRNA against mouse genes, 0.8 pmol siRNA per well (2 µl of 400 nM stock)
Timing: 3 days
Read-out: 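Percent of the per-plate non-targeting control median for intracellular GFP per well by laser scanning cytometry and for cell viability by ATP luminescence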
Direction: GFP, % of control: higher = more GFP per well, higher productivity; viability (ATP), % of control: higher = more viable cells (more ATP)
Call rule: 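a knock-down is called active if GFP reaches 120% or more of non-targeting control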
Shown is an unselected part of about 50,000 deposited reagents. In the full data, about 4,000 (8%) are marked active. 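Mouse siRNA library applied to hamster cells; one well for each siRNA.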 Reagents against one gene are numbered here.

gene,siRNA no.,"GFP, % of control","viability (ATP), % of control",activity call
Psmd9,1,91.8,78.7,inactive
Psmd9,2,143,94.9,active
Hnrnpk,1,85.8,60.8,inactive
Hnrnpk,2,83,50.1,inactive
Hnrnpk,3,79,77,inactive
Trmt11,1,83.5,84.1,inactive
Trmt11,2,31.3,39.9,inactive
Trmt11,3,65,66.5,inactive
Spata9,1,90,105,inactive
Spata9,2,99.6,84.3,inactive
Spata9,3,63.6,102,inactive
Foxn2,1,71.2,98,inactive
Foxn2,2,90.5,86.7,inactive
Glra2,1,72.1,75,inactive
Glra2,2,153,113,active
Glra2,3,53.7,64.2,inactive
Clk4,1,58.2,58.6,inactive
Dgka,1,74.4,48.8,inactive
Eif5a,1,95.1,91.3,inactive
Eif5a,2,65.2,64.9,inactive
Eif5a,3,81.1,80.7,inactive
Tas2r119,1,83.3,73.3,inactive
Tas2r119,2,67.7,89,inactive
Tas2r119,3,72.5,71,inactive
Trnau1ap,1,62.1,43.6,inactive
Trnau1ap,2,95.6,77.1,inactive
Trnau1ap,3,68.9,54.1,inactive
Usp3,1,67.8,83.8,inactive
Usp3,2,38,32.2,inactive
Usp3,3,74.1,56.4,inactive
Irx5,1,48.5,77.1,inactive
Irx5,2,68.4,76.6,inactive
Irx5,3,85.1,98.4,inactive
Qprt,1,55.7,126,inactive
Qprt,2,85.5,87.4,inactive
Kcnc4,1,102,69,inactive
Kcnc4,2,166,130,active
Kcnc4,3,173,59.5,active
Spatc1,1,85.4,77.9,inactive
Spatc1,2,88.1,108,inactive
Spatc1,3,95.4,97.1,inactive
4833408A19Rik,1,61.8,71.6,inactive
4833408A19Rik,2,57.4,68.6,inactive
4833408A19Rik,3,81.1,77.7,inactive
Ciao2a,1,73.8,36.9,inactive
Ciao2a,2,88,90.7,inactive
Ciao2a,3,96.8,113,inactive

Continued (3 carried over from the part before).
gene,siRNA no.,"GFP, % of control","viability (ATP), % of control",activity call
Ciao2a,1,73.8,36.9,inactive
Ciao2a,2,88,90.7,inactive
Ciao2a,3,96.8,113,inactive
Ldhal6b,1,66.3,61.4,inactive
Ldhal6b,2,79.3,64.8,inactive
Ldhal6b,3,95.8,85.9,inactive
Msx2,1,75.3,60.2,inactive
Msx2,2,45.7,66.4,inactive
Msx2,3,85.1,69.2,inactive
Zfp341,1,71.1,98.4,inactive
Zfp341,2,50,76.7,inactive
Polr2b,1,121,60.4,active
Polr2b,2,100,68.6,inactive
Dgat2,1,124,95.3,active
Dgat2,2,80.6,120,inactive
Dgat2,3,126,110,active
Irf1,1,113,87.3,inactive
Irf1,2,83,77.3,inactive
Irf1,3,79.4,115,inactive
Pals2,1,83.2,84.2,inactive
Pals2,2,133,133,active
Pals2,3,95.6,87.3,inactive
Pals2,4,115,88.2,inactive
Pdcd7,1,58.3,14.7,inactive
Pdcd7,2,97.9,65.1,inactive
Pdcd7,3,72.7,59.1,inactive
Slc35b4,1,23.6,54.8,inactive
Slc35b4,2,77.1,91.9,inactive
Slc35b4,3,92.4,105,inactive
Nme2,1,143,62.7,active
Nme2,2,67.1,74.5,inactive
Nme2,3,105,92.4,inactive
E330013P04Rik,1,89.7,91.1,inactive
E330013P04Rik,2,118,64.2,inactive
E330013P04Rik,3,76.3,92.8,inactive
Galnt17,1,87.3,112,inactive
Galnt17,2,95.5,139,inactive
Galnt17,3,99,122,inactive
Mnt,1,69.2,76.3,inactive
Mnt,2,76.1,55.5,inactive
Mnt,3,63,44.5,inactive
